These results are taken from the supplement of paper PMC7666118.

By UniProt entry, the sequences of proteins in these tests, tags left out. Where a name states a change or a piece, a line headed by the entry shows the natural chain unless it says otherwise.
UniProt O95394: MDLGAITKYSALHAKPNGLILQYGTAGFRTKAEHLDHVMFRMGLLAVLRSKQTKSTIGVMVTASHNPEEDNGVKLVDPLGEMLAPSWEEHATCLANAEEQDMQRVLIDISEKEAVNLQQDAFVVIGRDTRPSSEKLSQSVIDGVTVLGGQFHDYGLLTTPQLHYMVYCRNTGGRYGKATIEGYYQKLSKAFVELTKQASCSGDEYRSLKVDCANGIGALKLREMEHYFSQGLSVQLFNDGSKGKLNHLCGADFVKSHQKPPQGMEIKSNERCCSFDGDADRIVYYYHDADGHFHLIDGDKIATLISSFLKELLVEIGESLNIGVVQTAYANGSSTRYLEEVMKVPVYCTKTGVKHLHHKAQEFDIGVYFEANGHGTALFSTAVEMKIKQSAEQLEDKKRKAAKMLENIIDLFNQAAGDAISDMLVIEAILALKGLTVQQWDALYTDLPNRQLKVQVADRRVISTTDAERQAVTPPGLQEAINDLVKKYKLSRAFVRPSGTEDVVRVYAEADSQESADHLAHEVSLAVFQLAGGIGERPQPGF
UniProt Q9H2U2: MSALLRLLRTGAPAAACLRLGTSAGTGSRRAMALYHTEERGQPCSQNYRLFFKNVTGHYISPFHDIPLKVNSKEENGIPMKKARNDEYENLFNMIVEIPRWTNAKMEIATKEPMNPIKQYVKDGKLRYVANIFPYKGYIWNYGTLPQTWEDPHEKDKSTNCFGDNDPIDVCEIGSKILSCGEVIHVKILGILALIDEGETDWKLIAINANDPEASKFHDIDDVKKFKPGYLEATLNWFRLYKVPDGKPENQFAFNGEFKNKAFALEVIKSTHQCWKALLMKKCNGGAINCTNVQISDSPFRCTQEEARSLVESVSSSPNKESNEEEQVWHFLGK
UniProt P60510: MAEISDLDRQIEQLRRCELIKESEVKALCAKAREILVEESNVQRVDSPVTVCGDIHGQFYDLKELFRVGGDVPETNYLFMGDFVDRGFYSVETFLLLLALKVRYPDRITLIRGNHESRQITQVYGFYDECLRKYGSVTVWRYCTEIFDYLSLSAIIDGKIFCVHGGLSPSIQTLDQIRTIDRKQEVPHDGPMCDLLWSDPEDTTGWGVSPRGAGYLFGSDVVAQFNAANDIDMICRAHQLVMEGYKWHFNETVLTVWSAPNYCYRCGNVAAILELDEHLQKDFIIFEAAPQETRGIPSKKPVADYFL
UniProt Q15173: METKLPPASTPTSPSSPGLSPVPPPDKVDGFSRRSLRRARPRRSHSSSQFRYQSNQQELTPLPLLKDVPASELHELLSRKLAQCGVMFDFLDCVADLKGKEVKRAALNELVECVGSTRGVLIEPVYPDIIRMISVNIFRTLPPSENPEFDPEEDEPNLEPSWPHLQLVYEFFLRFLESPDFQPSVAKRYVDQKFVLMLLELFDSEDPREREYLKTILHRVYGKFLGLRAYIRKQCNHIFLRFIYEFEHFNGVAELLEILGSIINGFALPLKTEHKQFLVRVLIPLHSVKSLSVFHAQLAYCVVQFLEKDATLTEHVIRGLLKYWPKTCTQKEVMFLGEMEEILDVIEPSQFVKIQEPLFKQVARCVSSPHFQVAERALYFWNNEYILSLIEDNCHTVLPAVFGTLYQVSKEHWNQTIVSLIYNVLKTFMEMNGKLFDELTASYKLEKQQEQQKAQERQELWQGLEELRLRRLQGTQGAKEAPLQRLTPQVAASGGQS
UniProt Q9NR12, whole entry: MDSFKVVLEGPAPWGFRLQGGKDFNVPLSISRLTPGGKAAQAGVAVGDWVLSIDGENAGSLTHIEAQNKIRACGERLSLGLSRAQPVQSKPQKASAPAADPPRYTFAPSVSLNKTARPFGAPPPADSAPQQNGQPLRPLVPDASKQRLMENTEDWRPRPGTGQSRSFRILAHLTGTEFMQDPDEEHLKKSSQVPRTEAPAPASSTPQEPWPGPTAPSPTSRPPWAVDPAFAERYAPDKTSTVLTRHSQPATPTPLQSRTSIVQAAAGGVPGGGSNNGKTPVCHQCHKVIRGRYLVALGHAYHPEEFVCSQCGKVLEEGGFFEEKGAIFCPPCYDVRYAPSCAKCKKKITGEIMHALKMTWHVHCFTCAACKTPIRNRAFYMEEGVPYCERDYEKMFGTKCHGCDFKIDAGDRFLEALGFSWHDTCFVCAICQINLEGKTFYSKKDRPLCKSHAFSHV
UniProt P78356: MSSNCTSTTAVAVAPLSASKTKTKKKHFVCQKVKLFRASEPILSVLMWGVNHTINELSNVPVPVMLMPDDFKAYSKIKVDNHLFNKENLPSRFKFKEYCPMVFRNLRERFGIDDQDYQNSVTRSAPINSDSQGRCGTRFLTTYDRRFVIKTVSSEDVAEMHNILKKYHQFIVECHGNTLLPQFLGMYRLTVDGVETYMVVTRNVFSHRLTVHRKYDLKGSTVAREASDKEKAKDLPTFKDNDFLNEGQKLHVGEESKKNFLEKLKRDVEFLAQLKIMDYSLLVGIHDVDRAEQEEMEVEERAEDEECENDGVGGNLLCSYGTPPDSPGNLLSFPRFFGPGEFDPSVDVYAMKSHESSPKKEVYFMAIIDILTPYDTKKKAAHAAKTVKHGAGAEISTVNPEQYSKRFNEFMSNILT
UniProt P30154, whole entry: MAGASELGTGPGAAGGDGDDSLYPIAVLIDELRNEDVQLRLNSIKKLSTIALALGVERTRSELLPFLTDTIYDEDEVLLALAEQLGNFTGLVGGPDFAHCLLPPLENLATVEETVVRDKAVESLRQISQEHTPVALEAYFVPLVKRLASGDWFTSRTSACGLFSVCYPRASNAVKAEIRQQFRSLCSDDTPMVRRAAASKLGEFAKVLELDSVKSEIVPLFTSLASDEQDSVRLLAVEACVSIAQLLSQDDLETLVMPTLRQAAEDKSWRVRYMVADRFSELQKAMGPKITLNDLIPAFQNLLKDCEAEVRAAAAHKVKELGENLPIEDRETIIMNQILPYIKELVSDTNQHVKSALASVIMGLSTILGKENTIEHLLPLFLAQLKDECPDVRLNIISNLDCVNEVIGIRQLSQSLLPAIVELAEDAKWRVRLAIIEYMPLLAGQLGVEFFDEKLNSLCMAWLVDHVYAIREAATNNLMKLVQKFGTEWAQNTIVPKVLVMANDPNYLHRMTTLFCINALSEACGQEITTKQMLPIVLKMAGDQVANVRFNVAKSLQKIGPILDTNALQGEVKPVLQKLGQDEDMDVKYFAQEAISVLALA
UniProt P05165: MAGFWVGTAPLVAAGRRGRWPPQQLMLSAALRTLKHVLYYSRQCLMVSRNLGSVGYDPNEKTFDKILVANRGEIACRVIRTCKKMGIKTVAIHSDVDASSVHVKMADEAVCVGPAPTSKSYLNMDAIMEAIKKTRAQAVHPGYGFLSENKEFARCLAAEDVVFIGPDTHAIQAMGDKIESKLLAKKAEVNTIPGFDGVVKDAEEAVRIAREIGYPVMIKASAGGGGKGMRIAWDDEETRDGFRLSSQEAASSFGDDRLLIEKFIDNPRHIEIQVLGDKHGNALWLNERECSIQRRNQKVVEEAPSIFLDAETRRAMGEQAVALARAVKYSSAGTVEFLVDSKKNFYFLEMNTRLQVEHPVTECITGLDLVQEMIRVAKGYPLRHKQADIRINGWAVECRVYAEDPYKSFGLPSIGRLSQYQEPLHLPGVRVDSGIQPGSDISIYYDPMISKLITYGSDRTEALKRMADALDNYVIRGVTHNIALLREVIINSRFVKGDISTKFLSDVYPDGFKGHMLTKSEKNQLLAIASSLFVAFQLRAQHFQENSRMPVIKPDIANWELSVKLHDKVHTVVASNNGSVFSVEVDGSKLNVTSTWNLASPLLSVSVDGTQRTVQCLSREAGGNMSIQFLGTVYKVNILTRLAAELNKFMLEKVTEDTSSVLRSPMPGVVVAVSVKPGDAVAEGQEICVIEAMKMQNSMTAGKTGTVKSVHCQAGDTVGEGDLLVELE
UniProt Q16537, whole entry: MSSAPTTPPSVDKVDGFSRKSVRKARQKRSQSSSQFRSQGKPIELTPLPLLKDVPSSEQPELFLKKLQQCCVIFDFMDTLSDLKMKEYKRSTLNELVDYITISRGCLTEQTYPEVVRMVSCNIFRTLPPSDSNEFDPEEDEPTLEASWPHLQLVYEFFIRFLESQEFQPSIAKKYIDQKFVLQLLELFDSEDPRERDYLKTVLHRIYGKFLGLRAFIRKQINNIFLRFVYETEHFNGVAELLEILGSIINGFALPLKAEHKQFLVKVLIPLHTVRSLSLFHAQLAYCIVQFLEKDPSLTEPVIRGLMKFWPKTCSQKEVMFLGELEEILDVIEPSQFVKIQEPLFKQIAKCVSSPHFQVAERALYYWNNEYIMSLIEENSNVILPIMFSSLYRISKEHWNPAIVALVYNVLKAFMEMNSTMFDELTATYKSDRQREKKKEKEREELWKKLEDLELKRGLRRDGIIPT
UniProt Q9UHN1: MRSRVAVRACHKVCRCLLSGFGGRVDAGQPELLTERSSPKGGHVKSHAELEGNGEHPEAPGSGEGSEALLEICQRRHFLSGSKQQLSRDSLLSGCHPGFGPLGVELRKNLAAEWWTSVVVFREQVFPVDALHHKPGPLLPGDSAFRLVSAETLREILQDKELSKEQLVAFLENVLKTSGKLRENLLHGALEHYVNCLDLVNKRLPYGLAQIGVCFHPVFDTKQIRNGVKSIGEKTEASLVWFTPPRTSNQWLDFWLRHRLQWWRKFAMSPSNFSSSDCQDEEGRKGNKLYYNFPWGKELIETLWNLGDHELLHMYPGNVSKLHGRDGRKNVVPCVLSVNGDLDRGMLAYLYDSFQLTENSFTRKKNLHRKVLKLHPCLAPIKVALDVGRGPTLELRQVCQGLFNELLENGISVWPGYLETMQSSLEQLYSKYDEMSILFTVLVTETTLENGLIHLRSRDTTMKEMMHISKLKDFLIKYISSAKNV
UniProt Q10713: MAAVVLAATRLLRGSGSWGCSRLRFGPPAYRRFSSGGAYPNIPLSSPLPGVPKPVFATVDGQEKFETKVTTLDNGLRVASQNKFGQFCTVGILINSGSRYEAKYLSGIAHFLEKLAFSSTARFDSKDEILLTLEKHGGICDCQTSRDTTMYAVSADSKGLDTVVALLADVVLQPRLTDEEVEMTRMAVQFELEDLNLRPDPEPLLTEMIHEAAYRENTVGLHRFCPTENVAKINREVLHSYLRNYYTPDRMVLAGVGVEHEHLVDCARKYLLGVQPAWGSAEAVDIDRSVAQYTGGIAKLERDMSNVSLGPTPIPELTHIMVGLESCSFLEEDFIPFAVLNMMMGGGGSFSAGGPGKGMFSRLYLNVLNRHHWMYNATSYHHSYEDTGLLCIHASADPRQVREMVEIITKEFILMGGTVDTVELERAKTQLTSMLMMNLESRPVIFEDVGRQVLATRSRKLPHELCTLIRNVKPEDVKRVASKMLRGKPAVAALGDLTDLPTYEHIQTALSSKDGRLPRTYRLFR
UniProt Q8IUZ5: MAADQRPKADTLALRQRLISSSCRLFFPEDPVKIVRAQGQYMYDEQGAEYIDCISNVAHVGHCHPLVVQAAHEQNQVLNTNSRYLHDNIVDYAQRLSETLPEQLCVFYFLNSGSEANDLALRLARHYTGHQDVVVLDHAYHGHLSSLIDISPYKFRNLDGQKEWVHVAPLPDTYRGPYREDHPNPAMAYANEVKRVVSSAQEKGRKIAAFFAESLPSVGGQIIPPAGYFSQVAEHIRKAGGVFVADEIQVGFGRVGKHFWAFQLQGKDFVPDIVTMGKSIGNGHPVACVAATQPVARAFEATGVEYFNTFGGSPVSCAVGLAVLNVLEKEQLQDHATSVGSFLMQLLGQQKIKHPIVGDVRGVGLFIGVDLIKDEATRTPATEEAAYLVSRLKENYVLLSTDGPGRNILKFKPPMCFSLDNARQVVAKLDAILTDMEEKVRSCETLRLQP
UniProt Q9Y2S7: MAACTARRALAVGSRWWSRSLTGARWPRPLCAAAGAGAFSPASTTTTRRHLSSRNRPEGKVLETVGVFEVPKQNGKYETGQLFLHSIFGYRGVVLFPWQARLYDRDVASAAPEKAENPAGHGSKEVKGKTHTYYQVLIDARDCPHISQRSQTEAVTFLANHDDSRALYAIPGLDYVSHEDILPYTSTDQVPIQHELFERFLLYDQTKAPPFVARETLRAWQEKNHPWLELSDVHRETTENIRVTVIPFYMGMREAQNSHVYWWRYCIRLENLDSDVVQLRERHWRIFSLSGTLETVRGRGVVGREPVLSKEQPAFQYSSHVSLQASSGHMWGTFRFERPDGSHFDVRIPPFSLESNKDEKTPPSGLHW
UniProt Q9BY77: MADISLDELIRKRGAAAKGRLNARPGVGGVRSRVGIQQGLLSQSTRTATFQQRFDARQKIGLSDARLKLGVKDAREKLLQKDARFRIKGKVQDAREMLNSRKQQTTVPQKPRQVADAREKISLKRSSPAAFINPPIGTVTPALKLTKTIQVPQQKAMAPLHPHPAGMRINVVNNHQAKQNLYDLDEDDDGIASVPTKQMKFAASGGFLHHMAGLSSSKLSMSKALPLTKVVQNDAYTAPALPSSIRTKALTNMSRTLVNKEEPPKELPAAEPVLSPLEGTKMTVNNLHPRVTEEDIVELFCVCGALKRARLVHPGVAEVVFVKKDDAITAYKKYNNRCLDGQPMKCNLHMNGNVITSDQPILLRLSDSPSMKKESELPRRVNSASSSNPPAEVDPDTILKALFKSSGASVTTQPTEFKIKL

The other results are listed elsewhere or left out.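 How the source made its calls: active = dose-dependent thermal stabilisation significant by F-test of dose-response against flat model at 10% FDR; inactive = not significant.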

Compound in the experiment: Nc1nc2c(ncn2[C@@H]2O[C@H](COP(=O)(O)OP(=O)(O)OP(=O)(O)O)[C@@H](O)[C@H]2O)c(=O)[nH]1
In words: dose-dependent thermal stabilisation call (2D-TPP, DLPTP, 10% FDR) (binary (1 = stabilised)); higher = stabilised by the compound. The note with it: system: Jurkat gel-filtered lysate; concentration range 1-500 µM.
For the target PMPCB (UniProt O75439), the “dose-dependent thermal stabilisation call” value was inactive: 0.

Turning to PGM3 (UniProt O95394), the “dose-dependent thermal stabilisation call” value is inactive: 0.

On to PCMT1 (UniProt P22061), for which the “dose-dependent thermal stabilisation call” value is inactive: 0.

As for POLR3G (UniProt O15318), the “dose-dependent thermal stabilisation call” value is inactive: 0.

For the target PPA2 (UniProt Q9H2U2), the “dose-dependent thermal stabilisation call” value is inactive: 0.

In the case of PER1 (UniProt O15534), the “dose-dependent thermal stabilisation call” value was inactive: 0.

As to PPP4C (UniProt P60510), the “dose-dependent thermal stabilisation call” value was inactive: 0.

Regarding PGLS (UniProt O95336), the “dose-dependent thermal stabilisation call” value was inactive: 0.

With POLR2H (UniProt P52434), the “dose-dependent thermal stabilisation call” value is inactive: 0.

Consider PGAM1 (UniProt P18669), for which the “dose-dependent thermal stabilisation call” value is active: 1.

Turning to PPP2R5B (UniProt Q15173), the “dose-dependent thermal stabilisation call” value was inactive: 0.

As for PDLIM7 (UniProt Q9NR12), the “dose-dependent thermal stabilisation call” value was inactive: 0.

Consider PIP4K2B (UniProt P78356), for which the “dose-dependent thermal stabilisation call” value is inactive: 0.

Consider PPP2R1B (UniProt P30154), for which the “dose-dependent thermal stabilisation call” value is inactive: 0.

In the case of PCCA (UniProt P05165), the “dose-dependent thermal stabilisation call” value was inactive: 0.

On to PLEC (UniProt Q15149), for which the “dose-dependent thermal stabilisation call” value was inactive: 0.

For PPP2R5E (UniProt Q16537), the “dose-dependent thermal stabilisation call” value was active: 1.

POLG2 (UniProt Q9UHN1): the “dose-dependent thermal stabilisation call” value is inactive: 0.

In the case of PMPCA (UniProt Q10713), the “dose-dependent thermal stabilisation call” value was active: 1.

Turning to PEX5 (UniProt P50542), the “dose-dependent thermal stabilisation call” value is inactive: 0.

Take POLR2B (UniProt P30876): the “dose-dependent thermal stabilisation call” value was active: 1.

Take PHYKPL (UniProt Q8IUZ5): the “dose-dependent thermal stabilisation call” value is inactive: 0.

For the target POLDIP2 (UniProt Q9Y2S7), the “dose-dependent thermal stabilisation call” value was inactive: 0.

Consider PHGDH (UniProt O43175), for which the “dose-dependent thermal stabilisation call” value is inactive: 0.

As to POLDIP3 (UniProt Q9BY77), the “dose-dependent thermal stabilisation call” value was inactive: 0.

For the target PRCC (UniProt Q92733), the “dose-dependent thermal stabilisation call” value is inactive: 0.

Consider PIK3C3 (UniProt Q8NEB9), for which the “dose-dependent thermal stabilisation call” value was active: 1.

PRDM2 (UniProt Q13029): the “dose-dependent thermal stabilisation call” value was inactive: 0.

As to PPP2R2D (UniProt Q66LE6), the “dose-dependent thermal stabilisation call” value is inactive: 0.

With PECAM1 (UniProt P16284), the “dose-dependent thermal stabilisation call” value was inactive: 0.

With PPP1CA (UniProt P62136), the “dose-dependent thermal stabilisation call” value was inactive: 0.

Turning to PPP6R1 (UniProt Q9UPN7), the “dose-dependent thermal stabilisation call” value was inactive: 0.

Turning to PDCD6 (UniProt O75340), the “dose-dependent thermal stabilisation call” value is inactive: 0.

Regarding PCID2 (UniProt Q5JVF3), the “dose-dependent thermal stabilisation call” value was active: 1.

Turning to PPFIBP1 (UniProt Q86W92), the “dose-dependent thermal stabilisation call” value is inactive: 0.

For the target PEA15 (UniProt Q15121), the “dose-dependent thermal stabilisation call” value was inactive: 0.
